In patent publication US7482367B2, “Substituted benzimidazoles and methods of their use” (Novartis Vaccines and Diagnostics, Inc., priority 2005, dated 2009):
Some of these results come from one statement about several compounds together.

Each molecule was assayed against raf kinase (assay: Raf/Mek Filtration Assay or Biotinylated Raf Screen). Conditions: procedures of Examples 76 or 77; read-out: raf kinase inhibitory activity IC50.
Type: biochemical, human

| SMILES | IC50 [µM] |
| --- | --- |
| Cn1c(Nc2cccc(C(F)(F)F)c2)nc2cc(Oc3ccnc(-c4ncc(C(F)(F)F)[nH]4)c3)ccc21 [Example 5, {1-Methyl-5-[2-(5-trifluoromethyl-1H-imidazol-2-yl)-pyridin-4-yloxy]-1H-benzoimidazol-2-yl}-(3-trifluoromethyl-phenyl)-amine] | < 5 |
| Cn1c(Nc2ccc(C(F)(F)F)cc2)nc2cc(Oc3ccnc(-c4nc(C(F)(F)F)n[nH]4)c3)ccc21 [Example 63, {1-Methyl-5-[2-(5-trifluoromethyl-2H-[1,2,4]triazol-3-yl)-pyridin-4-yloxy]-1H-benzoimidazol-2-yl}-(4-trifluoromethyl-phenyl)-amine] | < 5 |
| CC(C)c1ccc(F)c(Nc2nc3cc(Oc4ccnc(-c5ncc(C(F)(F)F)[nH]5)c4)ccc3n2C)c1 [Example 24, (2-Fluoro-5-isopropyl-phenyl)-{1-methyl-5-[2-(5-trifluoromethyl-1H-imidazol-2-yl)-pyridin-4-yloxy]-1H-benzoimidazol-2-yl}-amine] | < 5 |
| Cn1c(Nc2cc(-c3cccnc3)ccc2F)nc2cc(Oc3ccnc(-c4ncc(C(F)(F)F)[nH]4)c3)ccc21 [Example 2, (2-Fluoro-5-pyridin-3-yl-phenyl)-{1-methyl-5-[2-(5-trifluoromethyl-1H-imidazol-2-yl)-pyridin-4-yloxy]-1H-benzoimidazol-2-yl}-amine] | < 5 |
| Cn1c(Nc2cc(C(C)(C)C)ccc2Cl)nc2cc(Oc3ccnc(-c4ncc(C(F)(F)F)[nH]4)c3)ccc21 [Example 30, (5-tert-Butyl-2-chloro-phenyl)-{1-methyl-5-[2-(5-trifluoromethyl-1H-imidazol-2-yl)-pyridin-4-yloxy]-1H-benzoimidazol-2-yl}-amine] | < 5 |
| CCN1CCN(Cc2n[nH]c(-c3cc(Oc4ccc5c(c4)nc(Nc4cc(C(F)(F)F)ccc4F)n5C)ccn3)n2)CC1 [Example 62, (5-{2-[5-(4-Ethyl-piperazin-1-yl-methyl)-2H-[1,2,4]triazol-3-yl]-pyridin-4-yloxy}-1-methyl-1H-benzoimidazol-2-yl)-(2-fluoro-5-trifluoromethyl-phenyl)-amine] | < 5 |
| Cn1c(Nc2ccc(C(F)(F)F)cc2)nc2cc(Oc3ccnc(-c4ncc(C(=O)NCCO)[nH]4)c3)ccc21 [Example 58, 2-{4-[1-Methyl-2-(4-trifluoro-methyl-phenylamino)-1H-benzo-imidazol-5-yloxy]-pyridin-2-yl}-3H-imidazole-4-carboxylic acid (2-hydroxy-ethyl)-amide] | < 5 |
| Cn1c(Nc2ccc(F)c(C(F)(F)F)c2)nc2cc(Oc3ccnc(-c4ncc(C(F)(F)F)[nH]4)c3)ccc21 [Example 10, (4-Fluoro-3-trifluoromethyl-phenyl)-{1-methyl-5-[2-(5-trifluoromethyl-1H-imidazol-2-yl)-pyridin-4-yloxy]-1H-benzoimidazol-2-yl}-amine] | < 5 |
| CCOC(=O)c1nc(-c2cc(Oc3ccc4c(c3)nc(Nc3cc(C(F)(F)F)ccc3Cl)n4C)ccn2)[nH]c1C(F)(F)F [Example 44, 2-{4-[2-(2-Chloro-5-trifluoro-methyl-phenylamino)-1-methyl-1H-benzoimidazol-5-yloxy]-pyridin-2-yl}-5-trifluoromethyl-1H-imidazole-4-carboxylic acidethyl ester] | < 5 |
| Cn1c(Nc2ccc(C(F)(F)F)cc2Cl)nc2cc(Oc3ccnc(-c4ncc(C(F)(F)F)[nH]4)c3)ccc21 [Example 28, (2-Chloro-4-trifluoromethyl-phenyl)-{1-methyl-5-[2-(5-tri-fluoromethyl-1H-imidazol-2-yl)-pyridin-4-yloxy]-1H-benzo-imidazol-2-yl}-amine] | < 5 |
| CCc1cccc(Nc2nc3cc(Oc4ccnc(-c5ncc(C(F)(F)F)[nH]5)c4)ccc3n2C)c1 [Example 6, (3-Ethyl-phenyl)-{1-methyl-5-[2-(5-trifluoromethyl-1H-imidazol-2-yl)-pyridin-4-yl-oxy]-1H-benzoimidazol-2-yl}-amine] | < 5 |
| Cn1c(Nc2ccc(SC(F)(F)F)cc2)nc2cc(Oc3ccnc(-c4ncc(-c5ccccc5)[nH]4)c3)ccc21 [Example 18, {1-Methyl-5-[2-(5-phenyl-1H-imidazol-2-yl)-pyridin-4-yloxy]-1H-benzoimidazol-2-yl}-(4-tri-fluoromethylsulfanyl-phenyl)-amine] | < 5 |
| Cn1c(Nc2cc(C(F)(F)F)ccc2Cl)nc2cc(Oc3ccnc(-c4ncc(C(F)(F)F)[nH]4)c3)ccc21 [Example 36, (2-Chloro-5-trifluoromethyl-phenyl)-{1-methyl-5-[2-(5-tri-fluoromethyl-1H-imidazol-2-yl)-pyridin-4-yloxy]-1H-benzo-imidazol-2-yl}-amine] | < 5 |
| COC(=O)c1cnc(-c2cc(Oc3ccc4c(c3)nc(Nc3cc(C(F)(F)F)ccc3F)n4C)ccn2)[nH]1 [Example 43, 2-{4-[2-(2-Fluoro-5-trifluoro-methyl-phenylamino)-1-methyl-1H-benzoimidazol-5-yloxy]-pyridin-2-yl}-3H-imidazole-4-carboxylic acid methyl ester] | < 5 |
| Cn1c(Nc2ccc(C(F)(F)F)cc2O)nc2cc(Oc3ccnc(-c4ncc(C(F)(F)F)[nH]4)c3)ccc21 [Example 59, 2-{1-Methyl-5-[2-(5-trifluoro-methyl-1H-imidazol-2-yl)-pyridin-4-yloxy]-1H-benzoimidazol-2-ylamino}-5-trifluoromethyl-phenol] | < 5 |
| Cc1[nH]c(-c2cc(Oc3ccc4c(c3)nc(Nc3cc(C(F)(F)F)ccc3F)n4C)ccn2)nc1-c1ccccc1 [Example 37, (2-Fluoro-5-trifluoromethyl-phenyl)-{1-methyl-5-[2-(5-methyl-4-phenyl-1H-imidazol-2-yl)-pyridin-4-yloxy]-1H-benzo-imidazol-2-yl}-amine] | < 5 |
| Cc1[nH]c(-c2cc(Oc3ccc4c(c3)nc(Nc3cccc(C(F)(F)F)c3)n4C)ccn2)nc1-c1ccccc1 [Example 40, {1-Methyl-5-[2-(5-methyl-4-phenyl-1H-imidazol-2-yl)-pyridin-4-yloxy]-1H-benzoimidazol-2-yl}-(3-trifluoromethyl-phenyl)-amine] | < 5 |
| Cn1c(Nc2cc(C(F)(F)F)ccc2F)nc2cc(Oc3ccnc(-c4nc(-c5ccccc5)c(C(F)(F)F)[nH]4)c3)ccc21 [Example 31, (2-Fluoro-5-trifluoromethyl-phenyl)-{1-methyl-5-[2-(4-phenyl-5-trifluoromethyl-1H-imidazol-2-yl)-pyridin-4-yloxy]-1H-benzo-imidazol-2-yl}-amine] | < 5 |
| Cn1c(Nc2cc(-c3ccncc3)ccc2F)nc2cc(Oc3ccnc(-c4ncc(C(F)(F)F)[nH]4)c3)ccc21 [Example 3, (2-Fluoro-5-pyridin-4-yl-phenyl)-{1-methyl-5-[2-(5-trifluoromethyl-1H-imidazol-2-yl)-pyridin-4-yloxy]-1H-benzoimidazol-2-yl}-amine] | < 5 |
| CCN1CCN(C(=O)c2cnc(-c3cc(Oc4ccc5c(c4)nc(Nc4cc(C(F)(F)F)ccc4F)n5C)ccn3)[nH]2)CC1 [Example 51, (4-Ethyl-piperazin-1-yl)-(2-{4-[2-(2-fluoro-5-trifluoromethyl-phenylamino)-1-methyl-1H-benzo-imidazol-5-yloxy]-pyridin-2-yl}-3H-imidazol-4-yl)-methanone] | < 5 |
| CCN1CCN(C(=O)c2cnc(-c3cc(Oc4ccc5c(c4)nc(Nc4ccc(C(F)(F)F)cc4)n5C)ccn3)[nH]2)CC1 [Example 56, (4-Ethyl-piperazin-1-yl)-(2-{4-[1-methyl-2-(4-trifluoromethyl-phenylamino)-1H-benzoimidazol-5-yloxy]-pyridin-2-yl}-3H-imidazol-4-yl)-methanone] | < 5 |
| COc1cc2c(cc1Oc1ccnc(-c3ncc(C(F)(F)F)[nH]3)c1)nc(Nc1cc(C(F)(F)F)ccc1F)n2C [Example 54, (2-Fluoro-5-trifluoromethyl-phenyl)-{6-methoxy-1-methyl-5-[2-(5-trifluoromethyl-1H-imidazol-2-yl)-pyridin-4-yloxy]-1H-benzo-imidazol-2-yl}-amine] | < 5 |
| Cc1[nH]c(-c2cc(Oc3ccc4c(c3)nc(Nc3ccc(C(C)(C)C)cc3)n4C)ccn2)nc1-c1ccccc1 [Example 39, (4-tert-Butyl-phenyl)-{1-methyl-5-[2-(5-methyl-4-phenyl-1H-imidazol-2-yl)-pyridin-4-yloxy]-1H-benzoimidazol-2-yl}-amine] | < 5 |
| CCc1cccc(Nc2nc3cc(Oc4ccnc(-c5nc(-c6ccccc6)c(C(F)(F)F)[nH]5)c4)ccc3n2C)c1 [Example 34, (3-Ethyl-phenyl)-{1-methyl-5-[2-(4-phenyl-5-trifluoromethyl-1H-imidazol-2-yl)-pyridin-4-yloxy]-1H-benzoimidazol-2-yl}-amine] | < 5 |
| Cc1[nH]c(-c2cc(Oc3ccc4c(c3)nc(Nc3cc(C(F)(F)F)ccc3F)n4C)ccn2)nc1-c1cccc(C(F)(F)F)c1 [Example 12, (2-Fluoro-5-trifluoromethyl-phenyl)-(1-methyl-5-{2-[5-methyl-4-(3-trifluoromethyl-phenyl)-1H-imidazol-2-yl]-pyridin-4-yloxy}-1H-benzoimidazol-2-yl)-amine] | < 5 |
| CN1CCN(c2ccc(Nc3nc4cc(Oc5ccnc(-c6ncc(C(F)(F)F)[nH]6)c5)ccc4n3C)cc2)CC1 [Example 42, [4-(4-Methyl-piperazin-1-yl)-phenyl]-{1-methyl-5-[2-(5-tri-fluoromethyl-1H-imidazol-2-yl)-pyridin-4-yloxy]-1H-benzo-imidazol-2-yl}-amine] | < 5 |
| Cn1c(Nc2cc(C(F)(F)F)ccc2F)nc2cc(Oc3ccnc(-c4ncc(C(=O)NCCO)[nH]4)c3)ccc21 [Example 52, 2-{4-[2-(2-Fluoro-5-trifluoro-methyl-phenylamino)-1-methyl-1H-benzoimidazol-5-yloxy]-pyridin-2-yl}-3H-imidazole-4-carboxylic acid (2-hydroxy-ethyl)-amide] | < 5 |
| CCOC(=O)c1nc(-c2cc(Oc3ccc4c(c3)nc(Nc3cc(C(F)(F)F)ccc3F)n4C)ccn2)[nH]c1C(F)(F)F [Example 14, 2-{4-[2-(2-Fluoro-5-trifluoromethyl-phenylamino)-1-methyl-1H-benzoimidazol-5-yloxy]-pyridin-2-yl}-5-trifluoromethyl-1H-imidazole-4-carboxylic acid ethyl ester] | < 5 |
